# This is a selection; strong and weak results do not stand in their true shares. At the low end of the ranking the order means little.
# Biological target: T1, ETV2 (UniProt O00321)
# T1 sequence: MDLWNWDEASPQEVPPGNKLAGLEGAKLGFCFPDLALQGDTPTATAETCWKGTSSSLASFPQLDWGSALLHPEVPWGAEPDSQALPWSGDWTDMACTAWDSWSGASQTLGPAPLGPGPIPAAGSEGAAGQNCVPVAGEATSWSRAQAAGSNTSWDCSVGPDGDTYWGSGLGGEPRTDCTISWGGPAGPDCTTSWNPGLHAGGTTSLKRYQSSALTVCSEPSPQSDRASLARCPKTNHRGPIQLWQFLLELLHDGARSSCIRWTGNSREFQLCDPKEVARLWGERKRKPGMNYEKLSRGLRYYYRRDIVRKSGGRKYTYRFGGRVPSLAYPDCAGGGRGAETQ
# Assay: DAPPL (digital affinity profiling via proximity ligation, sequencing)
# Details: 10 mM Tris-HCl pH 7.5, 50 mM NaCl, 1 mM DTT, 4% glycerol, room temperature, 30 min; GST-TFs on glutathione beads, 16-mer random dsDNA library, 0.1% …; high values mean tight binding; double strand, one strand shown; scale: fold enrichment (6-mer frequency, TF over GST control)
row,Sequence,binding signal
1,TGGTTG,0.879
2,CTTTGT,1.03
3,TCGACG,1.18
4,ATTTGC,1.23
5,CATGAT,0.906
6,AACTCA,1.22
7,AGTTTT,0.909
8,AAGGTT,0.894
9,ATCTGC,1.44
10,CGTACA,1.36
11,TTCGCG,1.2
12,TATGTT,1.08
13,CGTTAT,1.21
14,ACCAAA,1.14
15,AAACGA,1.1
16,CTCGAA,1.16
17,TCCGTC,1.35
18,TTCATG,1.26
19,GAATTG,0.897
20,CTCCAT,1.46

row,Sequence,binding signal
1,CGCACT,1.29
2,CTATGC,1.55
3,TGGTCA,0.888
4,GTTCAA,1.05
5,AATCTA,1.09
6,TCCATA,1.19
7,CAAGCA,0.997
8,GCTTCT,1.46
9,CACTAT,1.09
10,TAGAAA,0.989
11,CCCTTA,1.41
12,TCAGCT,1.11
13,AAATAC,1.51
14,GGTAAC,0.974
15,CTTACA,1.28
16,TGACCA,1.17
17,AGCATT,1.06
18,CGAACT,0.996
19,TTGCCA,0.992
20,ATAACC,1.05

# Biological target: T2, ETV3L (UniProt Q6ZN32)
# T2 sequence: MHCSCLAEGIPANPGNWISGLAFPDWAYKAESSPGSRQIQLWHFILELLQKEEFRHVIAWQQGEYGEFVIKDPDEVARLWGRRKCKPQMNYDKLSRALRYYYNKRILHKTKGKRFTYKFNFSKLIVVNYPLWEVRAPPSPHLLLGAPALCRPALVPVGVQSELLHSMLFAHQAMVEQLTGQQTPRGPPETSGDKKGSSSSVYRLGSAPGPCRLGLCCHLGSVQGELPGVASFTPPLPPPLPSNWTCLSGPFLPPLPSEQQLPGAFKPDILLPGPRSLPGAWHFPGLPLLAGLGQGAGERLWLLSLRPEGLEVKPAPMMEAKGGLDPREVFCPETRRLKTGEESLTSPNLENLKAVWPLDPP
# Assay: as above
# Details: 10 mM Tris-HCl pH 7.5, 50 mM NaCl, 1 mM DTT, 4% glycerol, room temperature, 30 min; GST-TFs on glutathione beads, 16-mer random dsDNA library, 0.1% …; high values mean tight binding; double strand, one strand shown; scale: fold enrichment (6-mer frequency, TF over GST control)
row,Sequence,binding signal
1,TGGTTG,1.03
2,ATTTGC,1.26
3,AACTCA,1.18
4,AGTTTT,0.943
5,AAGGTT,0.993
6,TATGTT,1.2
7,ACCAAA,0.991
8,AAACGA,0.994
9,TTCATG,1.33
10,TGGTCA,1.1
11,TCCATA,1.27
12,CAAGCA,1.17
13,CCCTTA,1.41
14,CTTACA,1.26
15,TTGCCA,1
